# The supplement of paper PMC3334620
# In all, about 33,000 sequences were measured (“E-score (-0.5 to 0.5)”: median about -0.0059, highest 2% from about 0.26 on). Some of the results follow.
# Molecular target: T1, Cin5 (UniProt P40917)
# T1 sequence: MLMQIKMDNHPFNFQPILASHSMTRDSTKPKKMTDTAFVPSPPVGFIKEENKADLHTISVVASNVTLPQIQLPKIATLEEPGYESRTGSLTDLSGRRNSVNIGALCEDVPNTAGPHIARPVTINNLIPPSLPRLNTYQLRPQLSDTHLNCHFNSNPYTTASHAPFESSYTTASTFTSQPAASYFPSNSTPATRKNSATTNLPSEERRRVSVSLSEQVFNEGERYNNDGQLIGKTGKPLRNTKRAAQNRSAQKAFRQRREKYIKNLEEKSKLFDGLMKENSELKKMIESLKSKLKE
# Test: PBM E-score (8-mer binding enrichment) (E-score (-0.5 to 0.5)); higher = stronger / more preferred TF binding
# Settings: protein concentration: 100 nM; construct: GST-full length
# In short: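 Yeast transcription factors, full-length or as DNA-binding domains, were expressed with a GST tag using PURExpress in vitro transcription/translation. At about 100-200 nM they were applied to universal all-10-mer Agilent arrays, double-stranded by primer extension on fresh or once-stripped slides. Fluorescent anti-GST detected bound protein, and masliner normalised the scans. E-scores for ungapped eight-base words, pooled with reverse complements, came from the Universal PBM Analysis Suite.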
row,Sequence,PBM E-score
1,CGGGTATA,0.117
2,CCGCTGGC,-0.244
3,GAAACACC,0.0555
4,CATAAGGG,0.1
5,GCCCACTA,-0.0597
6,AGCCTATA,0.0429
7,AGTCCCCG,-0.186
8,AATTGATC,0.0081
9,AGTGAGAT,0.111
10,ACATACGG,-0.0479
11,CTCCACCA,-0.244
12,GGTCTAAA,-0.061
13,TAAGACCA,0.0532
14,CGAGCTGC,-0.01
15,ACTTTCTA,0.0739
16,GAAACAAC,-0.0472
17,GGACCAGA,-0.197
18,AACGACCA,0.0948
19,AGAACTGG,0.0622
20,GGGGGCTA,-0.375
21,ATGCTTCA,0.0559
22,GGAGGACA,-0.188
23,AATGGCAT,0.32
24,AATACTGA,0.121
25,AAGCGACC,0.158

row,Sequence,PBM E-score
1,TACAGGGA,-0.188
2,CGTCGGAC,-0.191
3,AAGTCCAA,0.0423
4,ATCGTACC,-0.121
5,CAGCTTAC,0.312
6,CACGCAAA,0.0157
7,AATTTCCA,0.112
8,GGTAGGCA,-0.141
9,AAAGGTGC,-0.0891
10,GGGACTAA,-0.153
11,AGCTGCTC,0.0232
12,CGAGTTGA,0.0697
13,GCGCATCA,0.0295
14,GCACGGAA,0.111
15,AAAAGGGC,-0.137
16,AGGTAGAA,0.0884
17,CTGGTCAA,-0.0686
18,CTAGACCA,-0.0913
19,CGGCCTGA,-0.22
20,AAGCGGCC,-0.25
21,ATTTAGAA,-0.064
22,CCGTACCG,-0.199
23,ATATTATA,0.265
24,ATACACCG,0.00374
25,ACGGAAGA,0.111

# Part of the list above, with tabs:
row	Sequence	PBM E-score
23	AATGGCAT	0.32
24	AATACTGA	0.121
25	AAGCGACC	0.158
1	TACAGGGA	-0.188
2	CGTCGGAC	-0.191
3	AAGTCCAA	0.0423
4	ATCGTACC	-0.121

# The listing continues.

row,Sequence,PBM E-score
1,AACCATTA,0.201
2,AGGAGCTC,-0.255
3,CCGGTCTA,-0.302
4,CAGGTCTA,0.0224
5,GAGGATGA,0.0877
6,AGACCATC,0.06
7,CACTCCTC,-0.104
8,CTACGACC,-0.0935
9,AGCTCCGG,-0.00362
10,GGCACAAA,-0.0593
11,GACAAAGA,0.16
12,CAGTGTAA,0.0741
13,CACGAGCG,-0.127
14,GGACCCAC,-0.0783
15,CTGATACC,0.0112
16,GACTCATA,-0.0292
17,AGAAATCG,0.043
18,TCGCGTAA,0.257
19,CGGCGCTC,-0.168
20,CTTCTCCC,-0.17
21,AGTCTCGA,-0.0861
22,GTCCAGCA,-0.0757
23,CGGTGCTC,-0.0427
24,ATAATACG,0.213
25,AACGGAAA,0.254

row,Sequence,PBM E-score
1,CAGGCCCG,-0.3
2,ACATACTG,0.174
3,CACTCACG,0.0681
4,CTTTTGAA,0.0208
5,CCTAATCG,0.155
6,CTTGGAGA,0.00966
7,CGCGAAAA,0.066
8,AGTTAAGC,0.195
9,ACTAACAC,0.111
10,AAGTCTCA,-0.163
11,CTAATGAA,0.0931
12,AAAGATAG,-0.0374
13,AACGCATC,-0.0472
14,GAGACTAA,-0.0764
15,CACCCGCG,0.199
16,CGGGCAGC,-0.0992
17,AGCCGTTA,-0.036
18,GCGGGTCA,0.0915
19,GCCGCGGA,0.123
20,CTAGTCAG,-0.0157
21,GGCCCTAA,-0.169
22,CGGATCCG,0.112
23,TATAGGGA,-0.093
24,TATTCCCA,-0.0266
25,CAGAGTCA,-0.188

row,Sequence,PBM E-score
1,AGATGGTC,-0.00207
2,CGATCTTC,-0.0251
3,AACTACGG,-0.0389
4,CCCCGTTA,-0.0214
5,AACGCTCT,-0.216
6,AGGAGGTC,-0.322
7,CAGCCCAG,-0.276
8,CTTACAAG,-0.0954
9,AAATTTGA,0.122
10,ACATACCT,0.119
11,GCGATTCC,0.122
12,GTACTGAC,0.0117
13,AAATGCCG,0.0621
14,CCGAACCA,-0.0203
15,TCGGAGCA,-0.149
16,ACCTGAGA,0.0522
17,AGCCCGCA,-0.0668
18,AATGATTC,0.161
19,CCCTCTAC,-0.274
20,ACCGACCC,-0.0538
21,GAGCCCGA,-0.138
22,ACCGCAGT,-0.0377
23,AACCACTG,0.0301
24,AAAAGGAC,0.0428
25,GAGATTGC,-0.103

# No new results follow: entries from further up.
row,Sequence,PBM E-score
4,CCCCGTTA,-0.0214
5,AACGCTCT,-0.216

# Later entries.

row,Sequence,PBM E-score
1,AGCGTAGC,-0.11
2,GAGTATTA,0.178
3,AATAGCGG,-0.0718
4,GCAGAGTA,0.0019
5,CCTTCGTC,-0.106
6,CTCCGCCC,-0.173
7,CAAACGGC,-0.0907
8,ATTGAAGG,-0.11
9,CCTGTGAC,-0.111
10,CCGGCATC,-0.194
11,AAGCTGAC,0.0725
12,CAACACCG,-0.0768
13,CTATAGTC,-0.063
14,ATTCCTCG,0.123
15,AACCGTAT,-0.145
16,ACTTACAA,0.163
17,AAGAGTAA,0.0771
18,AGTGTCTA,-0.0127
19,CCGCCCCA,0.109
20,ACTCCCCA,0.106
21,CTTACTCC,0.0384
22,GTGGCAAC,-0.0786
23,ATGGGTAA,0.113
24,CCCTATGC,0.0135
25,AGAAAGCG,0.0282

row,Sequence,PBM E-score
1,ACTTCGGA,0.163
2,CCTAAGGA,-0.0261
3,AGGCGACT,-0.206
4,GCTCGAAA,-0.0143
5,GCACGCCA,-0.27
6,ATTGTTCG,0.131
7,CAACCGAG,0.0694
8,GCGGCGCC,0.115
9,TCTCTAAA,-0.131
10,CAGCGAAG,-0.187
11,GACCTCAA,-0.00016
12,CCCACCGC,0.104
13,ATCTCCTG,0.013
14,CTTTTCGA,0.00347
15,GTATCGAA,0.165
16,TATTCGCA,0.142
17,CGAACAAA,0.272
18,CCATATGA,-0.0136
19,ATAGAGGC,-0.297
20,ATTCAGGA,-0.0382
21,AGTATCGC,0.0508
22,CTTCACGA,-0.257
